# Molecular target: SARS-CoV-2 PL^pro (Severe acute respiratory syndrome coronavirus 2, UniProt P0DTD1)
# Experiment: SARS-CoV-2 PLpro fluorogenic inhibition assay: screening at 10 μM and IC50
# Format: biochemical
smiles,measurement,value
CNCCCC12CCC(c3ccccc31)c1ccccc12 [maprotiline],IC50,9.7 ± 0.3 µM
